Assay results as given in paper PMC11725642.

How the values were obtained:
[1] = system: GST-OfC3H49 (Osmanthus fragrans 'Sijigui' (printed 'Sjigui')); assay: EMSA; conditions: Chemiluminescence EMSA Kit (Beyotime); pH and temperature not stated; unlabeled probes used as competitors; recombinant protein; protein details: N-terminal …
[2] = system: GST-OfWRKY17 (Osmanthus fragrans 'Sijigui' (printed 'Sjigui')); assay: EMSA; conditions: Chemiluminescence EMSA Kit (Beyotime); pH and temperature not stated; unlabeled probes used as competitors; recombinant protein; protein details: N-terminal …; label: biotin on F strand

## AGCATTCTCACAAAAAGTAATTTTCACTATA (double strand) [proOfSOC1B probe]
[1]
  binding result: binds

## GCATATATCTAATTGACTTGAAATAAATGAA (double strand) [proOfC3H49 probe]
[2]
  binding result: binds

For at least one entry, the source does not settle the construct or the ends of the probe.
